Test results taken from paper PMC3305320.
Results are given in words; binding and its absence hold for the method and conditions named. Binding seen in cells or lysates may run through a third protein. Some results given as binding are weak or reduced against the parent protein; the word gives no strength. Tags and fused reporters may be left off the sequences shown.

What was measured:
[1] = target: T1, GST-LOX-PP WT (not stated (human or mouse cDNA cloned)) (UniProt P28301); assay: pull-down; GST-tagged protein expressed in H1299 cells; lysate in Buffer A (25 mM HEPES-KOH pH 7.2, 150 mM KCl, 2 mM EDTA, 1% Triton X-100) incubated with Glutathione-Sepharose 4B for 2 h at 4°C, washed four times; endogenous bound proteins detected by immunoblot
T1 sequence: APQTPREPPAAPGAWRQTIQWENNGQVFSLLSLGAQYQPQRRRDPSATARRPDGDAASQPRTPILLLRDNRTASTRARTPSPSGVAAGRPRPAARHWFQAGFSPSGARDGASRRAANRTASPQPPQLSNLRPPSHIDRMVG

[2] = target: T2, GST-LOX-PP ΔM3 (not stated (human or mouse cDNA cloned)) (UniProt P28301); assay: as above
T2 sequence: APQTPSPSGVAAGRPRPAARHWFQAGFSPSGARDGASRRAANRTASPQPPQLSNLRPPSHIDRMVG

binding [1]: binds | binding [2]: no binding
Substance: c-Raf (from UniProt P04049 1-648)
